Experimental data as given in paper PMC12618074.
No constants are given. Whether binding was seen depends on the method and setting. Binding seen in cells or lysates may run through a third protein. Some results given as binding are weak or reduced against the parent protein; the word gives no strength.

The chains behind the UniProt entries cited, without tags or fusion partners.
UniProt P49841: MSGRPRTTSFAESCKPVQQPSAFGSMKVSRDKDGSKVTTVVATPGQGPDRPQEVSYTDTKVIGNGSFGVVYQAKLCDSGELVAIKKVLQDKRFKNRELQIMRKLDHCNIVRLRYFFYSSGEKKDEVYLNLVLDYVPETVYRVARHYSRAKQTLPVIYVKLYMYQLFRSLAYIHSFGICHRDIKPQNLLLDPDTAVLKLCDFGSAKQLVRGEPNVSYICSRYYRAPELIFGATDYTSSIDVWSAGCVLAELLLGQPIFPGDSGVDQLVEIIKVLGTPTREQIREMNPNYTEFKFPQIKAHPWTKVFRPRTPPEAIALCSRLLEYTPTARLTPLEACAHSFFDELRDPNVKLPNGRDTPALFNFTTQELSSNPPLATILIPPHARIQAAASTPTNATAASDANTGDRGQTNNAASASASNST

Biological target: WWP1 E3 ubiquitin ligase (UniProt Q9H0M0)
Assay: co-IP; IP of WWP1 and GSK3β; details in Supplemental Figure 13B, C (not shown)

For “GSK3β (in the IP with WWP1, Supplemental Figure 13B) (from UniProt P49841 1-420) (enzyme)”, the binding was “binds”.
